Measured values taken from patent publication US20210171576A1, “METHODS FOR TREATING CANCER WITH ACYLDEPSIPEPTIDE ANALOGS” (priority 2018, published 2021).

B1: PYCR2 (protein, UniProt Q96C36 2-320, looked up)
Pyrroline-5-carboxylate …: SVGFIGAGQLAYALARGFTAAGILSAHKIIASSPEMNLPTVSALRKMGVNLTRSNKETVKHSDVLFLAVKPHIIPFILDEIGADVQARHIVVSCAAGVTISSVEKKLMAFQPAPKVIRCMTNTPVVVQEGATVYATGTHALVEDGQLLEQLMSSVGFCTEVEEDLIDAVTGLSGSGPAYAFMALDALADGGVKMGLPRRLAIQLGAQALLGAAKMLLDSEQHPCQLKDNVCSPGGATIHALHFLESGGFRSLLINAVEASCIRTRELQSMADQEKISPAALKKTLLDRVKLESPTVSTLTPSSPGKLLTRSLALGGKKD
B2: PITRM1 (protein, UniProt Q5JRX3 29-1037, looked up)
Presequence protease, …: NSNRACERALQYKLGDKIHGFTVNQVTSVPELFLTAVKLTHDDTGARYLHLAREDTNNLFSVQFRTTPMDSTGVPHILEHTVLCGSQKYPCRDPFFKMLNRSLSTFMNAFTASDYTLYPFSTQNPKDFQNLLSVYLDATFFPCLRELDFWQEGWRLEHENPSDPQTPLVFKGVVFNEMKGAFTDNERIFSQHLQNRLLPDHTYSVVSGGDPLCIPELTWEQLKQFHATHYHPSNARFFTYGNFPLEQHLKQIHEEALSKFQKIEPSTVVPAQTPWDKPREFQITCGPDSFATDPSKQTTISVSFLLPDITDTFEAFTLSLLSSLLTSGPNSPFYKALIESGLGTDFSPDVGYNGYTREAYFSVGLQGIAEKDIETVRSLIDRTIDEVVEKGFEDDRIEALLHKIEIQMKHQSTSFGLMLTSYIASCWNHDGDPVELLKLGNQLAKFRQCLQENPKFLQEKVKQYFKNNQHKLTLSMRPDDKYHEKQAQVEATKLKQKVEALSPGDRQQIYEKGLELRSQQSKPQDASCLPALKVSDIEPTIPVTELDVVLTAGDIPVQYCAQPTNGMVYFRAFSSLNTLPEELRPYVPLFCSVLTKLGCGLLDYREQAQQIELKTGGMSASPHVLPDDSHMDTYEQGVLFSSLCLDRNLPDMMQLWSEIFNNPCFEEEEHFKVLVKMTAQELANGIPDSGHLYASIRAGRTLTPAGDLQETFSGMDQVRLMKRIAEMTDIKPILRKLPRIKKHLLNGDNMRCSVNATPQQMPQTEKAVEDFLRSIGRSKKERRPVRPHTVEKPVPSSSGGDAHVPHGSQVIRKLVMEPTFKPWQMKTHFLMPFPVNYVGECIRTVPYTDPDHASLKILARLMTAKFLHTEIREKGGAYGGGAKLSHNGIFTLYSYRDPNTIETLQSFGKAVDWAKSGKFTQQDIDEAKLSVFSTVDAPVAPSDKGMDHFLYGLSDEMKQAHREQLFAVSHDKLLAVSDRYLGTGKSTHGLAILGPENPKIAKDPSWIIQ
B3: PMPCA (protein, UniProt Q10713 34-525, looked up)
Mitochondrial-processing …: SSGGAYPNIPLSSPLPGVPKPVFATVDGQEKFETKVTTLDNGLRVASQNKFGQFCTVGILINSGSRYEAKYLSGIAHFLEKLAFSSTARFDSKDEILLTLEKHGGICDCQTSRDTTMYAVSADSKGLDTVVALLADVVLQPRLTDEEVEMTRMAVQFELEDLNLRPDPEPLLTEMIHEAAYRENTVGLHRFCPTENVAKINREVLHSYLRNYYTPDRMVLAGVGVEHEHLVDCARKYLLGVQPAWGSAEAVDIDRSVAQYTGGIAKLERDMSNVSLGPTPIPELTHIMVGLESCSFLEEDFIPFAVLNMMMGGGGSFSAGGPGKGMFSRLYLNVLNRHHWMYNATSYHHSYEDTGLLCIHASADPRQVREMVEIITKEFILMGGTVDTVELERAKTQLTSMLMMNLESRPVIFEDVGRQVLATRSRKLPHELCTLIRNVKPEDVKRVASKMLRGKPAVAALGDLTDLPTYEHIQTALSSKDGRLPRTYRLFR
B4: PMPCB (protein, UniProt O75439 44-489, looked up)
Mitochondrial-processing …: STQAATQVVLNVPETRVTCLESGLRVASEDSGLSTCTVGLWIDAGSRYENEKNNGTAHFLEHMAFKGTKKRSQLDLELEIENMGAHLNAYTSREQTVYYAKAFSKDLPRAVEILADIIQNSTLGEAEIERERGVILREMQEVETNLQEVVFDYLHATAYQNTALGRTILGPTENIKSISRKDLVDYITTHYKGPRIVLAAAGGVSHDELLDLAKFHFGDSLCTHKGEIPALPPCKFTGSEIRVRDDKMPLAHLAIAVEAVGWAHPDTICLMVANTLIGNWDRSFGGGMNLSSKLAQLTCHGNLCHSFQSFNTSYTDTGLWGLYMVCESSTVADMLHVVQKEWMRLCTSVTESEVARARNLLKTNMLLQLDGSTPICEDIGRQMLCYNRRIPIPELEARIDAVNAETIREVCTKYIYNRSPAIAAVGPIKQLPDFKQIRSNMCWLRD
B5: PNPT1 (protein, UniProt Q8TCS8 46-783, looked up)
Polyribonucleotide …: AVAVDLGNRKLEISSGKLARFADGSAVVQSGDTAVMVTAVSKTKPSPSQFMPLVVDYRQKAAAAGRIPTNYLRREIGTSDKEILTSRIIDRSIRPLFPAGYFYDTQVLCNLLAVDGVNEPDVLAINGASVALSLSDIPWNGPVGAVRIGIIDGEYVVNPTRKEMSSSTLNLVVAGAPKSQIVMLEASAENILQQDFCHAIKVGVKYTQQIIQGIQQLVKETGVTKRTPQKLFTPSPEIVKYTHKLAMERLYAVFTDYEHDKVSRDEAVNKIRLDTEEQLKEKFPEADPYEIIESFNVVAKEVFRSIVLNEYKRCDGRDLTSLRNVSCEVDMFKTLHGSALFQRGQTQVLCTVTFDSLESGIKSDQVITAINGIKDKNFMLHYEFPPYATNEIGKVTGLNRRELGHGALAEKALYPVIPRDFPFTIRVTSEVLESNGSSSMASACGGSLALMDSGVPISSAVAGVAIGLVTKTDPEKGEIEDYRLLTDILGIEDYNGDMDFKIAGTNKGITALQADIKLPGIPIKIVMEAIQQASVAKKEILQIMNKTISKPRASRKENGPVVETVQVPLSKRAKFVGPGGYNLKKLQAETGVTISQVDEETFSVFAPTPSAMHEARDFITEICKDDQEQQLEFGAVYTATITEIRDTGVMVKLYPNMTAVLLHNTQLDQRKIKHPTALGLEVGQEIQVKYFGRDPADGRMRLSRKVLQSPATTVVRTLNDRSSIVMGEPISQSSSNSQ
B6: POLDIP2 (protein, UniProt Q9Y2S7 52-368, looked up)
Polymerase delta-interacting …: SSRNRPEGKVLETVGVFEVPKQNGKYETGQLFLHSIFGYRGVVLFPWQARLYDRDVASAAPEKAENPAGHGSKEVKGKTHTYYQVLIDARDCPHISQRSQTEAVTFLANHDDSRALYAIPGLDYVSHEDILPYTSTDQVPIQHELFERFLLYDQTKAPPFVARETLRAWQEKNHPWLELSDVHRETTENIRVTVIPFYMGMREAQNSHVYWWRYCIRLENLDSDVVQLRERHWRIFSLSGTLETVRGRGVVGREPVLSKEQPAFQYSSHVSLQASSGHMWGTFRFERPDGSHFDVRIPPFSLESNKDEKTPPSGLHW
B7: PRDX2 (protein, UniProt P32119 2-198, looked up)
Peroxiredoxin-2: ASGNARIGKPAPDFKATAVVDGAFKEVKLSDYKGKYVVLFFYPLDFTFVCPTEIIAFSNRAEDFRKLGCEVLGVSVDSQFTHLAWINTPRKEGGLGPLNIPLLADVTRRLSEDYGVLKTDEGIAYRGLFIIDGKGVLRQITVNDLPVGRSVDEALRLVQAFQYTDEHGEVCPAGWKPGSDTIKPNVDDSKEYFSKHN
B8: PRDX4 (protein, UniProt Q13162 38-271, looked up)
Peroxiredoxin-4: WETEERPRTREEECHFYAGGQVYPGEASRVSVADHSLHLSKAKISKPAPYWEGTAVIDGEFKELKLTDYRGKYLVFFFYPLDFTFVCPTEIIAFGDRLEEFRSINTEVVACSVDSQFTHLAWINTPRRQGGLGPIRIPLLSDLTHQISKDYGVYLEDSGHTLRGLFIIDDKGILRQITLNDLPVGRSVDETLRLVQAFQYTDKHGEVCPAGWKPGSETIIPDPAGKLKYFDKLN
B9: PRDX5 (protein, UniProt P30044 53-214, looked up)
Peroxiredoxin-5, mitochondrial: MAPIKVGDAIPAVEVFEGEPGNKVNLAELFKGKKGVLFGVPGAFTPGCSKTHLPGFVEQAEALKAKGVQVVACLSVNDAFVTGEWGRAHKAEGKVRLLADPTGAFGKETDLLLDDSLVSIFGNRRLKRFSMVVQDGIVKALNVEPDGTGLTCSLAPNIISQL

These molecules were tested on mitochondrial proteins of HEK293 T-REx cells (assay: Mitochondrial proteome profiling for WT and CLPP^−/− (fold change CLPP^−/−/WT)). Details: […]; MaxQuant total peptide ion intensity.
Set-up: species or system human

| Molecule | Avg. fold change (CLPP KO/WT) |
| --- | --- |
| B1 | −2.75 |

Same assay, conditions: fold change of mitochondrial protein detected in CLPP knockout compared to WT HEK293 T-REx cells; MaxQuant total peptide ion intensity

| Molecule | Avg. fold change (CLPP KO/WT) |
| --- | --- |
| B2 | 1.55 |
| B3 | −2.71 |
| B4 | 2.47 |
| B5 | −1.56 |
| B6 | 4.89 |
| B7 | −9.17 |
| B8 | −2.49 |
| B9 | 2.38 |
